3 compounds from US20220177484A1, “MACROCYCLES WITH ANTIOXIDANT AND NEUROPROTECTIVE ACTIVITIES” (INSTITUTO BIOMAR, S.A, priority 2019, published 2022) can be followed below.

Some compounds share one wording; it may come from a single statement.

A short description of data set [1]: Interference with the H2O2 determination method (H2O2 mixed with compound).
In the next data set the test system is C57BL6/J male mice. As to the kind of experiment: Open field test under normal conditions. The data set is classed as in vivo. The settings on record: once-daily 150 mg/kg intraperitoneal.

For `C=C[C@@H]1C=C(C)[C@H]2[C@@H]3[C@H](Oc4ccc(cc4)C[C@@]4(O)C=C(C(=O)N4)C(=O)[C@@H]13)[C@@H]1[C@@H](C)C[C@@H](C)C[C@]12C` [Pyrrocidine A, reference compound], the “interference with the H2O2 determination method” value (shortened to “interference”) in data set [1] is recorded as “absence of such interference”.

Turning to `C=C[C@@]1(C)C=C(C)C2C3[C@H](Oc4ccc(cc4)CC4C(=O)NC(=O)[C@H]4C(=O)[C@H]31)C1[C@@H](C)C[C@@H](C)C[C@@]21C` (stereo partly drawn) [GKK1032, reference compound], in data set [1], the “interference” value is on record as “absence of such interference”.

For the compound `C=CC1(C)C=C(C)C2C3C(Oc4ccc(cc4)CC4(O)NC(=O)C5(OC45)C(=O)C31)C1C(C)CC(C)CC21C` (stereo not drawn) [Compound I], the “interference” value in data set [1] is reported as “absence of such interference”. Also, in the data set on C57BL6/J male mice (normal mice), the “number of line crossings (open field)” value is listed as “increased” and the “rearing in the central square (open field)” value was “increase”. In the data set on C57BL6/J male mice (normal mice (FIGS. 12 and 13)), the “time spent in central square of the arena (open field)” value is listed as “increased”.
